Source: US5217864, “Replication initiator protein complex and methods of use thereof” (The Rockefeller University)

Target: T1, OTF1/NFIII (UniProt P14859)
T1 sequence (looked up, limits assumed): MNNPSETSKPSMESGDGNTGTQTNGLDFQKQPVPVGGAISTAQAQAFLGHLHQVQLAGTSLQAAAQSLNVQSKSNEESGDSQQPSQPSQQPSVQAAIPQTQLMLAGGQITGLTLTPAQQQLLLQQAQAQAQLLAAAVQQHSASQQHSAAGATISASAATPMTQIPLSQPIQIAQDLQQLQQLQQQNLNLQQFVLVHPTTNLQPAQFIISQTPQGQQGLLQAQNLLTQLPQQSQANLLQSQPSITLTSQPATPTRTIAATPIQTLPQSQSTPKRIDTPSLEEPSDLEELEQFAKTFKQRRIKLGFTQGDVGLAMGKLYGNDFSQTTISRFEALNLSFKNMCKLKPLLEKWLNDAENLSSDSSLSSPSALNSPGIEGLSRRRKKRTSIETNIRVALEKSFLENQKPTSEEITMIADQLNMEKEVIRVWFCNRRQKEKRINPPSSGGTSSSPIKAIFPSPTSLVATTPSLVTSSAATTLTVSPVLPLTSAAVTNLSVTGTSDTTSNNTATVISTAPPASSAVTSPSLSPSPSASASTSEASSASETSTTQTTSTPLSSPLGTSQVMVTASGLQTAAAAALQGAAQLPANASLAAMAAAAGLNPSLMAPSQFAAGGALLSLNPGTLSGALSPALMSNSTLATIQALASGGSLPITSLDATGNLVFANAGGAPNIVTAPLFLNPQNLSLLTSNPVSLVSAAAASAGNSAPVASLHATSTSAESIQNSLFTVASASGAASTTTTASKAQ
Assay: EMSA
Details: data not shown; reverse orientation; purified native protein; only the site is given

ATTGACAT (double strand) [related OTF1-like site near 3' end of 280 bp fragment]
binding result: no binding

For at least one entry, the source does not settle the construct or the ends of the probe. A negative result means that nothing was seen under these conditions. Protein sequences can lack the tags named with them.
